From paper PMC5572924
No constants are given. Whether binding was seen depends on the method and setting. A result given as binding can be weak or reduced; the word gives no strength. For part of these data: In cells and extracts the contact can be indirect.

Amino acid sequences for entries named in this document (tags omitted). Residues count along the entry.
UniProt A0A0H2URU9, residues 14-108: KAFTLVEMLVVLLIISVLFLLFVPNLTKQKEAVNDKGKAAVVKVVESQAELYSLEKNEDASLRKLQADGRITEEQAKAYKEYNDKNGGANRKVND

Key:
[1] = target: mature ComGC in competence pili preparations of S. pneumoniae T4 (S. pneumoniae TIGR4 (endogenous in T4)); assay: two-dimensional PAGE (native gel, then SDS-PAGE) with immunoblot; pili preparations of competent T4 WT and T4ΔcomGC run on a 12% native gel; one lane cut and placed on a second SDS-PAGE; immunoblot with ComGC antibody
[2] = target: mature ComGC of Streptococcus pneumoniae fused to the T25 or T18 fragment of Bordetella pertussis adenylate cyclase (CyaA) (S. pneumoniae); assay: two-hybrid; bacterial adenylate cyclase two-hybrid (BACTH) in E. coli BTH101; T25 (pKT25) and T18 (pUT18C) fusions; beta-galactosidase activity in liquid culture in Miller units; cultures grown O/N at 30 °C
[3] = target: mature ComGC of Streptococcus pneumoniae fused to the T25 or T18 fragment of Bordetella pertussis adenylate cyclase (CyaA) (S. pneumoniae); assay: cross-linking; E. coli BTH101 expressing T25-ComGC/T18-ComGC treated with 1% paraformaldehyde in 10 mM sodium phosphate buffer, pH 6.8, 30 min; cell extracts immunoblotted with anti-ComGC antibody

Row | Substance | binding [1] | binding [2] | binding [3]
1 | mature ComGC in competence pili preparations of S. pneumoniae T4 (from UniProt A0A0H2URU9 14-108) | binds | – | –
2 | mature ComGC of Streptococcus pneumoniae fused to the T25 or T18 fragment of Bordetella pertussis adenylate cyclase (CyaA) (from UniProt A0A0H2URU9 14-108) | – | binds | binds
